Tests used:
[1] = Chlorine dioxide gas concentration monitored in treated space
Cannabis plants = assay: Plant tissue analysis of leaves (nutrients and total chloride), Trial 1; type: in vivo; conditions: for Boron (B) / Calcium (Ca) / Copper (Cu) / Iron (Fe) / Magnesium (Mg) / Manganese (Mn) / Nitrate / Phosphate / Potash (K) / Sodium (Na) / Sulfur (S) / Zinc (Zn): After, 1.9 mg chlorine dioxide per cubic foot, 18 hours
dried Cannabis flower = assay: Dry flower phytochemical profiling after chlorine dioxide gas treatment; conditions: 18 hours
[2] = test system: fresh and dried Cannabis flower; assay: Terpene smell to the human nose of treated flower
[3] = dose 10 mg chlorine dioxide gas/100 grams of flower
[4] = dose 14 mg chlorine dioxide gas/100 grams of flower
[5] = dose 25 mg chlorine dioxide gas/100 grams of flower
[6] = dose 50 mg chlorine dioxide gas/100 grams of flower

[O][Cl+][O-] [chlorine dioxide]
measured maximum chlorine dioxide concentration ([1]; Trial 1, 1.9 mg per cubic foot, 1550 cubic feet, 4 plants): about 16 ppmv | measured maximum chlorine dioxide concentration ([1]; Trial 2, 0.45 mg per cubic foot, 840 healthy flowering plants): about 1.2 ppmv | chlorine dioxide smell during treatment ([1]; Trial 3, 18-hour treatment period): there was no chlorine dioxide smell | chloride levels of leaf tissues, before vs after treatment (Cannabis plants; Trial 1): remained unchanged | Boron (B) (Cannabis plants; Trial 1, Flowering Plants): 65 ppm | Calcium (Ca) (Cannabis plants; Trial 1, Flowering Plants): 2.8% | Copper (Cu) (Cannabis plants; Trial 1, Flowering Plants): 9.7 ppm | Iron (Fe) (Cannabis plants; Trial 1, Flowering Plants): 150 ppm | Magnesium (Mg) (Cannabis plants; Trial 1, Flowering Plants): 0.94% | Manganese (Mn) (Cannabis plants; Trial 1, Flowering Plants): 52 ppm | Nitrate (Cannabis plants; Trial 1, Flowering Plants): 5400 ppm | Phosphate (Cannabis plants; Trial 1, Flowering Plants): 2400 ppm | Potash (K) (Cannabis plants; Trial 1, Flowering Plants): 3.1% | Sodium (Na) (Cannabis plants; Trial 1, Flowering Plants): 0.02% | Sulfur (S) (Cannabis plants; Trial 1, Flowering Plants): 0.23% | Zinc (Zn) (Cannabis plants; Trial 1, Flowering Plants): 39 ppm | Boron (B) (Cannabis plants; Trial 1, Veg plants): 92 ppm | Calcium (Ca) (Cannabis plants; Trial 1, Veg plants): 3.8% | Copper (Cu) (Cannabis plants; Trial 1, Veg plants): 7.5 ppm | Iron (Fe) (Cannabis plants; Trial 1, Veg plants): 200 ppm | Magnesium (Mg) (Cannabis plants; Trial 1, Veg plants): 1.2% | Manganese (Mn) (Cannabis plants; Trial 1, Veg plants): 35 ppm | Nitrate (Cannabis plants; Trial 1, Veg plants): 12700 ppm | Phosphate (Cannabis plants; Trial 1, Veg plants): 2800 ppm | Potash (K) (Cannabis plants; Trial 1, Veg plants): 2.9% | Sodium (Na) (Cannabis plants; Trial 1, Veg plants): 0.02% | Sulfur (S) (Cannabis plants; Trial 1, Veg plants): 0.27% | Zinc (Zn) (Cannabis plants; Trial 1, Veg plants): 51 ppm | CBD Changes in Wt. % from control (dried Cannabis flower; [3]): −0.17 Wt. % | CBD Weight % (dried Cannabis flower; [3]): 0.00 Weight % | THC Changes in Wt. % from control (dried Cannabis flower; [3]): −0.14 Wt. % | THC Weight % (dried Cannabis flower; [3]): 15.03 Weight % | Total Cannabinoid Changes in Wt. % from control (dried Cannabis flower; [3]): −0.45 Wt. % | Total Cannabinoid Weight % (dried Cannabis flower; [3]): 17.11 Weight % | Total Terpene Changes in Wt. % from control (dried Cannabis flower; [3]): 0.04 Wt. % | Total Terpene Weight % (dried Cannabis flower; [3]): 0.80 Weight % | CBD Changes in Wt. % from control (dried Cannabis flower; [4]): −0.12 Wt. % | CBD Weight % (dried Cannabis flower; [4]): 0.05 Weight % | THC Changes in Wt. % from control (dried Cannabis flower; [4]): 1.02 Wt. % | THC Weight % (dried Cannabis flower; [4]): 16.19 Weight % | Total Cannabinoid Changes in Wt. % from control (dried Cannabis flower; [4]): 1.04 Wt. % | Total Cannabinoid Weight % (dried Cannabis flower; [4]): 18.60 Weight % | Total Terpene Changes in Wt. % from control (dried Cannabis flower; [4]): −0.07 Wt. % | Total Terpene Weight % (dried Cannabis flower; [4]): 0.69 Weight % | CBD Changes in Wt. % from control (dried Cannabis flower; [5]): −0.16 Wt. % | CBD Weight % (dried Cannabis flower; [5]): 0.01 Weight % | THC Changes in Wt. % from control (dried Cannabis flower; [5]): 0.76 Wt. % | THC Weight % (dried Cannabis flower; [5]): 15.93 Weight % | Total Cannabinoid Changes in Wt. % from control (dried Cannabis flower; [5]): 0.72 Wt. % | Total Cannabinoid Weight % (dried Cannabis flower; [5]): 18.28 Weight % | Total Terpene Changes in Wt. % from control (dried Cannabis flower; [5]): 0.06 Wt. % | Total Terpene Weight % (dried Cannabis flower; [5]): 0.82 Weight % | CBD Changes in Wt. % from control (dried Cannabis flower; [6]): −0.16 Wt. % | CBD Weight % (dried Cannabis flower; [6]): 0.01 Weight % | THC Changes in Wt. % from control (dried Cannabis flower; [6]): 0.20 Wt. % | THC Weight % (dried Cannabis flower; [6]): 15.37 Weight % | Total Cannabinoid Changes in Wt. % from control (dried Cannabis flower; [6]): −0.04 Wt. % | Total Cannabinoid Weight % (dried Cannabis flower; [6]): 17.52 Weight % | Total Terpene Changes in Wt. % from control (dried Cannabis flower; [6]): 0.02 Wt. % | Total Terpene Weight % (dried Cannabis flower; [6]): 0.78 Weight % | terpene smell to the human nose ([2]; dose of 50 mg): the terpene smell was diminished to the human nose | terpene smell to the human nose ([2]; dose of 725 mg (so in the source)): the terpene smell was diminished to the human nose

— patent publication US12329159B2, “Systems and methods for use of chlorine dioxide in cultivation and post-harvest applications” (Prokure Solutions, LLC, priority 2018, dated 2025)
